These are yes or no findings as the source states them, for the method shown. Some entries that bind do so weakly or less than the wild type. Values belong to the binder of their own block, whether it stands above or below them.
Key:
LILRB1 = LILRB1 (UniProt Q8NHL6); test: SPR
LILRB2 = LILRB2 (UniProt Q8N423); test: SPR

Amino acid sequences for entries named in this document (tags omitted). Residues count along the entry.
UniProt Q8NHL6, residues 24-458: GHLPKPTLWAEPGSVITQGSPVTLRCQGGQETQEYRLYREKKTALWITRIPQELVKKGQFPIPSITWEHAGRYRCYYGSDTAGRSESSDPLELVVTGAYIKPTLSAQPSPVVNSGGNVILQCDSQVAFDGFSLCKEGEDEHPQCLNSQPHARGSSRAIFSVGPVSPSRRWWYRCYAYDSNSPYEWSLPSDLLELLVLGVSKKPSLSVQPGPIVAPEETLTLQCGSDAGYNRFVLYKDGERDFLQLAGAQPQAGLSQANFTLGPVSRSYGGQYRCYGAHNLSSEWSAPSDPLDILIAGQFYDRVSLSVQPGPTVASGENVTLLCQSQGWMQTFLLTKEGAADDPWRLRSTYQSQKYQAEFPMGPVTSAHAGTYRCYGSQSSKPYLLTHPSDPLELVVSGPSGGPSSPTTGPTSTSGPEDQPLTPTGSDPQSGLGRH
UniProt Q8N423, residues 22-460: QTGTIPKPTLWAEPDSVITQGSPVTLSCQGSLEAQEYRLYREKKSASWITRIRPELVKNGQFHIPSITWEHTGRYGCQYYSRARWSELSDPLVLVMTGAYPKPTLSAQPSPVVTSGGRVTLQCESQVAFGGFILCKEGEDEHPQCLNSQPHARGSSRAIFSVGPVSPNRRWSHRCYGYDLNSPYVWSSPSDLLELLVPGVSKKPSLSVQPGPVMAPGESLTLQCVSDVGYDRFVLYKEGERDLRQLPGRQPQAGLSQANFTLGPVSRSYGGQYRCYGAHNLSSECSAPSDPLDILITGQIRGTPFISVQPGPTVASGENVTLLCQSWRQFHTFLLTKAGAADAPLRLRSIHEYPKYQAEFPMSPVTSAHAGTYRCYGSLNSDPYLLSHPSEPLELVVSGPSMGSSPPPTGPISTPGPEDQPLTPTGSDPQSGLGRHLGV

- binding (LILRB1): binds
- binding (LILRB2): binds
B1: full-length tryptophanyl-tRNA synthetase (WRS) (enzyme)
chain: MPNSEPASLLELFNSIATQGELVRSLKAGNASKDEIDSAVKMLVSLKMSYKAAAGEDYKADCPPGNPAPTSNHGPDATEAEEDFVDPWTVQTSSAKGIDYDKLIVRFGSSKIDKELINRIERATGQRPHHFLRRGIFFSHRDMNQVLDAYENKKPFYLYTGRGPSSEAMHVGHLIPFIFTKWLQDVFNVPLVIQMTDDEKYLWKDLTLDQAYSYAVENAKDIIACGFDINKTFIFSDLDYMGMSSGFYKNVVKIQKHVTFNQVKGIFGFTDSDCIGKISFPAIQAAPSFSNSFPQIFRDRTDIQCLIPCVIDQDPYFRMTRDVAPRIGYPKPALLHSTFFPALQGAQTKMSASDPNSSIFLTDTAKQIKTKVNKHAFSGGRDTIEEHRQFGGNCDVDVSFMYLTFFLEDDDKLEQIRKDYTSGAMLTGELKKALIEVLLPLIAEHQARRKEVTDEIVKEFMTPRKLSFDFQ

- binding (LILRB1): binds
- binding (LILRB2): binds
B2: mini-WRS (enzyme)
chain: MSYKAAAGEDYKADCPPGNPAPTSNHGPDATEAEEDFVDPWTVQTSSAKGIDYDKLIVRFGSSKIDKELINRIERATGQRPHHFLRRGIFFSHRDMNQVLDAYENKKPFYLYTGRGPSSEAMHVGHLIPFIFTKWLQDVFNVPLVIQMTDDEKYLWKDLTLDQAYSYAVENAKDIIACGFDINKTFIFSDLDYMGMSSGFYKNVVKIQKHVTFNQVKGIFGFTDSDCIGKISFPAIQAAPSFSNSFPQIFRDRTDIQCLIPCVIDQDPYFRMTRDVAPRIGYPKPALLHSTFFPALQGAQTKMSASDPNSSIFLTDTAKQIKTKVNKHAFSGGRDTIEEHRQFGGNCDVDVSFMYLTFFLEDDDKLEQIRKDYTSGAMLTGELKKALIEVLLPLIAEHQARRKEVTDEIVKEFMTPRKLSFDFQ
